Binding data for one molecule are collected here from publication PMC6546395.

This assay concerns the target T1, Sli15 (S. cerevisiae) (UniProt P38283).
T1 sequence: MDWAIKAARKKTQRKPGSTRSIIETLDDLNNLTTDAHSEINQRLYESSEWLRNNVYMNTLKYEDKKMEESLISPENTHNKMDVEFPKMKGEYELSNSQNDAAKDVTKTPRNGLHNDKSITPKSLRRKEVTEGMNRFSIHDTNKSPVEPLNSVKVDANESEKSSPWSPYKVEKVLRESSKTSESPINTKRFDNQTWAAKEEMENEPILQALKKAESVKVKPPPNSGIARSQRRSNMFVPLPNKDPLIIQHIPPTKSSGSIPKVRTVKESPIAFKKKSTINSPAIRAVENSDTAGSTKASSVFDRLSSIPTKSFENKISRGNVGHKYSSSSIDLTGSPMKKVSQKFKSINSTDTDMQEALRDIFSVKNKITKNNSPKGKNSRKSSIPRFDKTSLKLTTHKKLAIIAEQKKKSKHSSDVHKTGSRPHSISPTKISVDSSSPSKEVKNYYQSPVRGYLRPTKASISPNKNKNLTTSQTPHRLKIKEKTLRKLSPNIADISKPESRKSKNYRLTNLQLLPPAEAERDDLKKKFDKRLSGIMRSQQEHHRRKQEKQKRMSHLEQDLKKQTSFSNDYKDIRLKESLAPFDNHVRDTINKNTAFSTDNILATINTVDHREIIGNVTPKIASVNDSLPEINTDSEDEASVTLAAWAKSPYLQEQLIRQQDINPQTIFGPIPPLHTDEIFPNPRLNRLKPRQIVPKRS
The assay can be described thus: co-purification of co-expressed subunits; subunits expressed together in High Five insect cells (biGBac baculovirus); purified by the tag of one subunit (M2 anti-FLAG agarose or Strep-Tactin); Coomassie gel.

No constants are given. Whether binding was seen depends on the method and setting. Some binding calls cover weakened binding; strength is not graded here.

B1: Ipl1 (enzyme, UniProt P38991 1-367)
chain: MQRNSLVNIKLNANSPSKKTTTRPNTSRINKPWRISHSPQQRNPNSKIPSPVREKLNRLPVNNKKFLDMESSKIPSPIRKATSSKMIHENKKLPKFKSLSLDDFELGKKLGKGKFGKVYCVRHRSTGYICALKVMEKEEIIKYNLQKQFRREVEIQTSLNHPNLTKSYGYFHDEKRVYLLMEYLVNGEMYKLLRLHGPFNDILASDYIYQIANALDYMHKKNIIHRDIKPENILIGFNNVIKLTDFGWSIINPPENRRKTVCGTIDYLSPEMVESREYDHTIDAWALGVLAFELLTGAPPFEEEMKDTTYKRIAALDIKMPSNISQDAQDLILKLLKYDPKDRMRLGDVKMHPWILRNKPFWENKRL
Take B1: the binding result is recorded as “binds”.
